Experimental data: PubChem BioAssay AID493014 (National Center for Advancing Translational Sciences (NCATS), 2011)
The list shows a part of the results. Shown are side measurements of this screen, not its main read-out; they come without a call. Compounds called inactive in the main read-out are mostly missing here. Words in brackets tell the shape of the fitted curve; partial curves, single points and poor fits give uncertain potencies.

Assay: qHTS Assay to Find Inhibitors of Chronic Active B-Cell Receptor Signaling
Details: ABC-DLBCL IkBa-CBG/CBR reporter, luminescence ratio (green luciferase fused to IkBa over red control in TMD8 lymphoma cells), 4 h
Outline: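 Cell line TMD8 (human ABC DLBCL), stably expressing tet-inducible CBG68-IkBa fusion and CBR; IMDM/0.5% FBS; cpd up to 46 uM; dox induction, 4 h, 37C/5% CO2; dual luminescence; green/red ratio; MG132 control.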

[1] = measured here: CBR red luminescence, cell number
[2] = measured here: IkBa-CBG green luminescence

SMILES	AC50 [1]	AC50 [2]
COc1ccc(N2CCN(C3CCCN(C(=O)CCN4CCCCO4)C3)CC2)cc1 (stereo not drawn)	22.4 µM [rising, single point]	–
COc1ccc(/C=c2\s/c(=C\C(=O)C(C)(C)C)[nH]c2=O)cc1O	5.62 µM [rising, single point]	–
c1cncc(-c2noc(-c3cccc4ccccc34)n2)c1	0.411 µM [rising, full curve, poor fit]	–
COc1cc(C)c(C(C)C)cc1S(=O)(=O)n1cnc(C)c1	29.1 µM [rising, single point]	23.1 µM [falling, single point]
CN(C)S(=O)(=O)c1ccc(Oc2ccccc2)cc1	16.4 µM [rising, single point]	–
O=C(NC(=S)N1CCCCCC1)c1ccccc1Cl	31.6 µM [rising, single point]	20 µM [falling, single point]
CS(=O)(=O)N(Cc1ccccc1)c1ccccc1C(=O)N1CCN(c2ccccc2)CC1	1.84 µM [falling, partial curve, poor fit]	–
CCC(=O)NC(Nc1nc(C)cs1)(C(=O)OC)C(F)(F)F (stereo not drawn)	29.1 µM [rising, single point]	–
Cc1ccc(NC(=O)CSc2nc3ccccc3c(=O)n2CCCC(=O)NCCCN2CCOCC2)cc1	0.631 µM [falling, full curve, poor fit]	–
COc1ccc(C2CC(C(F)(F)F)n3ncc(C(=O)Nc4cccc(O)c4)c3N2)cc1OC (stereo not drawn)	35.5 µM [rising, single point]	–
Cc1ccc(-c2nc(SCC(N)=O)c(C#N)c3c2CCCC3)cc1	0.461 µM [rising, partial curve, poor fit]	–
O=C(/C=C/c1cc2ccccc2o1)c1ccccc1O	35.5 µM [falling, single point]	–
CC(C)(C)c1cc2nc(N)nc(N)n2n1	3.16 µM [rising, single point]	–
O=C1N[C@@H](Cc2c[nH]c3ccccc23)COC(=O)[C@H](Cc2ccc(F)cc2)C/C=C\C[C@H]1CC(=O)N(CCO)Cc1ccccc1	29.1 µM [falling, single point]	–
COc1ccc(CCNC(=O)c2cnc3scc(C)n3c2=O)cc1OC	–	4.61 µM [falling, full curve, poor fit]
COC(=O)c1ccsc1NC(=O)CCS(=O)(=O)c1ccccc1	4.47 µM [falling, partial curve]	–
Cc1cc(C)c2nc3sc(C(=O)N4CCOCC4)c(N)c3cc2c1	1.78 µM [rising, partial curve, poor fit]	1.26 µM [falling, full curve, poor fit]
Cc1ccc(N=C/C(C(=O)C(F)(F)F)=C(\O)c2cccs2)cc1	35.5 µM [falling, single point]	–
COc1ccccc1NC(=O)Nc1nnc(CC(=O)Nc2ccccc2C)s1	15.8 µM [falling, partial curve, poor fit]	–
O=C(COC(=O)[C@@H]1CC(O)CN1S(=O)(=O)c1ccc2c(c1)OCCO2)Nc1cc(F)ccc1F (stereo partly drawn)	5.8 µM [rising, full curve, poor fit]	–

SMILES	AC50 [1]	AC50 [2]
O=C(CCc1ccc(S(=O)(=O)N2CCOCC2)cc1)Nc1ccc2ccccc2c1	32.6 µM [falling, single point]	–
CC1CCCN(S(=O)(=O)c2coc(C(N)=O)c2)C1 (stereo not drawn)	2.31 µM [rising, partial curve]	–
O=C(/C=C/c1cn(-c2ccccc2)nc1-c1cccnc1)N1CCCCC1	22.4 µM [falling, partial curve, poor fit]	–
O=C(CSc1nnc(-c2ccncc2)o1)NCc1ccccc1Cl	29.1 µM [falling, single point]	–
CCC1CCC(NC2CCCCNC2=O)CC1 (stereo not drawn)	6.51 µM [falling, single point]	–
CCCCNC(=O)Nc1ccccc1C(=O)NCCC	7.31 µM [rising, partial curve]	–
Cc1cccc(N=N/C(=C\O)C(=O)c2ccc(Br)cc2)c1	3.55 µM [rising, full curve, poor fit]	–
CCN(CC)CCCNC(=O)c1cc2c(=O)n(CC)c3ccccc3c2s1	10 µM [falling, single point]	–
CCOc1cccc(OCCCCN2CCOCC2)c1	3.55 µM [rising, single point]	–
COc1cc(C(=O)NNC(=S)NC(=O)c2ccc(Cl)cc2)cc(OC)c1OC	29.1 µM [rising, single point]	23.1 µM [falling, single point]
O=C(CCN1C(=O)/C(=C/c2ccccc2F)SC1=S)N[C@@H](CO)Cc1ccccc1	2.82 µM [falling, partial curve, poor fit]	–
CC1=C(C(=O)c2ccccc2)C(c2cn(-c3ccccc3)nc2-c2ccc(Cl)cc2)NC(=S)N1 (stereo not drawn)	22.4 µM [rising, single point]	–
O=C(N/C(=C/c1cccs1)C(=O)N1CCOCC1)c1ccccc1	2.51 µM [falling, full curve, poor fit]	–
COc1ccc(CN(C)C(=O)Cc2c[nH]c3ccccc23)cc1	6.31 µM [rising, single point]	–
COc1ccc(CCN2CC(C(=O)O)CC2=O)cc1OC (stereo not drawn)	32.6 µM [rising, partial curve, poor fit]	–
COc1cc(C(=O)N/N=C/c2ccc(OC(=O)N3CCOCC3)cc2)cc(OC)c1OC	–	29.1 µM [falling, single point]
CCOC(=O)[C@H]1[C@H]2COc3ccc(Cl)cc3[C@@H]2N2C(=O)CN(Cc3ccc(Cl)cc3)C(=O)[C@@]12C	32.6 µM [falling, single point]	–
O=C(NC1CCCCC1)C1CCN(S(=O)(=O)c2cccc3nonc23)CC1	3.16 µM [rising, full curve, poor fit]	–
Cn1c(=O)c2c(nc(N3CCN(c4ccc([N+](=O)[O-])cc4)CC3)n2C)n(C)c1=O	4.47 µM [falling, full curve, poor fit]	–

Gathered by group, the compounds so far with a tert-butyl group
SMILES	AC50 [1]	AC50 [2]
COc1ccc(/C=c2\s/c(=C\C(=O)C(C)(C)C)[nH]c2=O)cc1O	5.62 µM [rising, single point]	–
CC(C)(C)c1cc2nc(N)nc(N)n2n1	3.16 µM [rising, single point]	–
